PubChem BioAssay AID1259308, NCATS | 2017
Assay: 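Candidate targets for better recombinant protein yield in mammalian cells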 (primary screen). Cell system: human HEK293 embryonic kidney cells stably expressing firefly luciferase (HEK-CMV-Luc2-Hygro). Reagent: single siRNA against human genes, 0.8 pmol siRNA per well. Duration: 72 h. Read-out: 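Luciferase light (ONE-Glo) measured on one replicate plate set and viability (CellTiter-Glo) on the other, scaled to a negative control siRNA, with robust z-scores and luciferase per cell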. Direction: total luciferase, z-score and total luciferase, % of control: higher = more reporter protein produced; luciferase per cell, z-score: higher = more reporter output per viable cell; viable cells, % of control: higher = more viable cells. Hit rule: 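An siRNA counts as active if its total luciferase robust z-score exceeds 3; genes with two or more such siRNAs out of three were retested with fresh siRNAs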. Meaning of the calls: active = raised luciferase; inactive = no rise.
Here is one part, drawn at random, of about 59,000 reagents. In the full data, about 1,510 (2.6%) got an active call. 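Calls use total luciferase alone and ignore viability, so some active siRNAs may act by altering cell number.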 A number with no mark means an inactive call. Reagents against one gene are numbered here.

| gene symbol | reagent | total luciferase, z-score | total luciferase, % of control | luciferase per cell, z-score | viable cells, % of control |
| --- | --- | --- | --- | --- | --- |
| PARPBP | 1 | -0.782 | 66.3 | -1.13 | 99.8 |
| PARPBP | 2 | 0.188 | 85.6 | 0.174 | 91.4 |
| PARPBP | 3 | -2.78 | 26.6 | -4.84 | 106 |
| FGFR2 | 1 | -0.616 | 69.6 | -0.46 | 87.8 |
| FGFR2 | 2 | 1.12 | 104 | 0.458 | 103 |
| FGFR2 | 3 | -0.749 | 67 | -0.403 | 83.2 |
| RBM41 | 1 | -0.907 | 63.8 | -1.31 | 101 |
| RBM41 | 2 | -0.658 | 68.8 | -0.465 | 86.9 |
| RBM41 | 3 | 0.338 | 88.6 | -0.139 | 103 |
| CERS2 | 1 | -0.309 | 75.7 | -0.441 | 95.1 |
| CERS2 | 2 | -0.0899 | 80.1 | 0.109 | 87 |
| CERS2 | 3 | -1.46 | 52.9 | -0.0723 | 60.2 |
| ZNF785 | 1 | -0.618 | 69.6 | -0.629 | 91.8 |
| ZNF785 | 2 | 0.775 | 97.3 | 0.551 | 94 |
| ZNF785 | 3 | 0.923 | 100 | -0.22 | 119 |
| CUL5 | 1 | 0.792 | 97.6 | 0.121 | 106 |
| CUL5 | 2 | 0.555 | 92.9 | 1.28 | 74.1 |
| CUL5 | 3 | -0.111 | 79.7 | -0.419 | 99.4 |
| OSBP | 1 | -0.0717 | 80.5 | -0.431 | 101 |
| OSBP | 2 | 0.485 | 91.5 | 0.0118 | 102 |
| OSBP | 3 | 2.16 | 125 | 1.62 | 91.1 |
| CEP19 | 1 | -0.216 | 77.6 | 0.119 | 84 |
| CEP19 | 2 | -1.44 | 53.3 | -0.571 | 69.2 |
| CEP19 | 3 | -0.249 | 76.9 | -0.729 | 104 |
| PHYH | 1 | 0.453 | 90.9 | 0.534 | 88.2 |
| PHYH | 2 | 2.62 | 134 | 1.63 | 97.5 |
| PHYH | 3 | -0.294 | 76 | -0.539 | 97.9 |
| SLCO2A1 | 1 | -0.886 | 64.3 | -0.515 | 82.2 |
| SLCO2A1 | 2 | -0.0614 | 80.7 | -0.501 | 103 |
| SLCO2A1 | 3 | 0.562 | 93.1 | 0.416 | 93.2 |
| LRRC4 | 1 | -0.285 | 76.2 | -0.195 | 89.7 |
| LRRC4 | 2 | -1.84 | 45.3 | -2.45 | 96.7 |
| LRRC4 | 3 | 0.993 | 102 | 0.27 | 106 |
| KDM5A | 1 | -0.301 | 75.9 | -0.177 | 88.9 |
| KDM5A | 2 | -0.305 | 75.8 | 0.27 | 78.9 |
| KDM5A | 3 | 0.156 | 85 | -0.0229 | 95.5 |
| ZNF804B | 1 | -0.924 | 63.5 | -0.441 | 79.7 |
| ZNF804B | 2 | 0.538 | 92.6 | 0.677 | 86.6 |
| ZNF804B | 3 | 0.000529 | 81.9 | -0.0725 | 93.3 |

Not a retest: entries from further up.
| gene symbol | reagent | total luciferase, z-score | total luciferase, % of control | luciferase per cell, z-score | viable cells, % of control |
| --- | --- | --- | --- | --- | --- |
| CUL5 | 2 | 0.555 | 92.9 | 1.28 | 74.1 |
| CUL5 | 3 | -0.111 | 79.7 | -0.419 | 99.4 |
| OSBP | 1 | -0.0717 | 80.5 | -0.431 | 101 |
| OSBP | 2 | 0.485 | 91.5 | 0.0118 | 102 |
| OSBP | 3 | 2.16 | 125 | 1.62 | 91.1 |
